Measured values published in PMC5261807 (2017).

Sequences of proteins named here, by UniProt entry; tags and fusion partners are left off.
UniProt Q05471: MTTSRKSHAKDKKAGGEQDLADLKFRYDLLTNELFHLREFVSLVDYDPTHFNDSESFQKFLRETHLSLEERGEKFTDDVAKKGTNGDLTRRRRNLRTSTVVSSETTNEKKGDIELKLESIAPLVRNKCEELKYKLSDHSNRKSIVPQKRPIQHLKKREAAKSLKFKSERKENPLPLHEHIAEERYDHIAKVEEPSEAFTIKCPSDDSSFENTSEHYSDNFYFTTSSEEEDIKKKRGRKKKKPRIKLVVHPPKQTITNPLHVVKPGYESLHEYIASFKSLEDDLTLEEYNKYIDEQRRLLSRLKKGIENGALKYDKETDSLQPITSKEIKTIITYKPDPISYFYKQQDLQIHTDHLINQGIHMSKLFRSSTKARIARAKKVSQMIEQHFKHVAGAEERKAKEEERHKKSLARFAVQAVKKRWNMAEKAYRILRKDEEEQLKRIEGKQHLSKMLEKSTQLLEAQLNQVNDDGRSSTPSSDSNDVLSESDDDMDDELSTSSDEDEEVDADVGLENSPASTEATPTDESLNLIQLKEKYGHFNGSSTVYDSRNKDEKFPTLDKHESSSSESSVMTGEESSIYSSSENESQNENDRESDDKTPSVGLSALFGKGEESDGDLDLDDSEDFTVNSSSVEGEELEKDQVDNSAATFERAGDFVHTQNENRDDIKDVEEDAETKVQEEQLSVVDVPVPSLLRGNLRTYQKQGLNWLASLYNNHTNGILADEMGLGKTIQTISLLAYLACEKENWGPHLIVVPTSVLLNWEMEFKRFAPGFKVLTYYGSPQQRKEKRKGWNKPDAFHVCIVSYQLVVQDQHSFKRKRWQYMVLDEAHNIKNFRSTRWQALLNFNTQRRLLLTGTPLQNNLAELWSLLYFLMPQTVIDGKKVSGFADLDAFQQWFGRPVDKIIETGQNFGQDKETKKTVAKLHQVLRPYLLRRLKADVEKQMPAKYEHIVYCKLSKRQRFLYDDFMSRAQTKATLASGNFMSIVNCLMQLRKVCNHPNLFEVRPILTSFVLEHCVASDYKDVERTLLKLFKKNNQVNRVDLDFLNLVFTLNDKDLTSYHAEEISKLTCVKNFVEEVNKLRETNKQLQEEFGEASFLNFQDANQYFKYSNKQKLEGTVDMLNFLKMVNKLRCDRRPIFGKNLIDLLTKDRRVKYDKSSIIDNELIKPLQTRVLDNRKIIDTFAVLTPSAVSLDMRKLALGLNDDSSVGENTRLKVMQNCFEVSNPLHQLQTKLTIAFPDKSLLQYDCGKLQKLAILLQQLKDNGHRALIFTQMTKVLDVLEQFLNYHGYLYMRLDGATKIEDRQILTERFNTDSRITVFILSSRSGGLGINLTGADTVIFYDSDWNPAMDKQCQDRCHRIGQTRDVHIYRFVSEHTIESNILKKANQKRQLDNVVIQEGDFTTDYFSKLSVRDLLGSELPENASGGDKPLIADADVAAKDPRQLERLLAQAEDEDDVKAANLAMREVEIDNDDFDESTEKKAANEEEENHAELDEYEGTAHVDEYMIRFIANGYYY

T1: Bdf1-TAP (S. cerevisiae) (UniProt P35817)
T1 sequence: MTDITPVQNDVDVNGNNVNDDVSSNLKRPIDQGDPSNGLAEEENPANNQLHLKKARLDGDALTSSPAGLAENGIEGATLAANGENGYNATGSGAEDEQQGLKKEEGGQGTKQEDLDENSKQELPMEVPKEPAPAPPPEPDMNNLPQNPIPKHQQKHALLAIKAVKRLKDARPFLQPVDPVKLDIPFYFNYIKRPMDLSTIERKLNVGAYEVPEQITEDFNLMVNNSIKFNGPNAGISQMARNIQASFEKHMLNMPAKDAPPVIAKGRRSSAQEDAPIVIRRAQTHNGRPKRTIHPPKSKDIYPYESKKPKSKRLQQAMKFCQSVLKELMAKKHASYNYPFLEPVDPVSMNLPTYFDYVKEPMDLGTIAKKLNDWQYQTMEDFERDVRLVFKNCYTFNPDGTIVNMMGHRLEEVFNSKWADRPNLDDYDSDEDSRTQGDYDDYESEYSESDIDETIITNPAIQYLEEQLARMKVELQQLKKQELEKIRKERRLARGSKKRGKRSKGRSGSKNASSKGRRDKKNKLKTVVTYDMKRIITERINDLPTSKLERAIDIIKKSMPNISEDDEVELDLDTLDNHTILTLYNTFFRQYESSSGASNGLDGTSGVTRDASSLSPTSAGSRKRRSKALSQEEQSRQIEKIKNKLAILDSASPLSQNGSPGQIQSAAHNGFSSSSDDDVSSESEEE

T2: Bdf2-TAP (S. cerevisiae) (UniProt Q07442)
T2 sequence: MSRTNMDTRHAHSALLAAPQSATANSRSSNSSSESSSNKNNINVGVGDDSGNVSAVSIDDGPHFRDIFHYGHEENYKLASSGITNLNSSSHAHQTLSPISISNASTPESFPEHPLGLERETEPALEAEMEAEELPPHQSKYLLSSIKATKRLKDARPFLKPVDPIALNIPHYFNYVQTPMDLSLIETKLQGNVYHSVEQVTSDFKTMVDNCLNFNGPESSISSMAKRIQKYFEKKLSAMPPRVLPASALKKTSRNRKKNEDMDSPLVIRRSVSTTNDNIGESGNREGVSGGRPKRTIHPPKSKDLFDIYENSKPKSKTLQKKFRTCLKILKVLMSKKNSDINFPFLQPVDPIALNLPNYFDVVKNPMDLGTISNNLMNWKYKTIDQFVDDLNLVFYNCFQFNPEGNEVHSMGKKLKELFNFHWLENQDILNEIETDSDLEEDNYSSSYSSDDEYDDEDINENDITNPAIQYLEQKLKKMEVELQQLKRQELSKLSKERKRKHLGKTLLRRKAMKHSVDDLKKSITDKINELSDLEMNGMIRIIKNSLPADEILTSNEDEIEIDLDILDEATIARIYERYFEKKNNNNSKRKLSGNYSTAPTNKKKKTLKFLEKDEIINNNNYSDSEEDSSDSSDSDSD


What was measured:
Experiment in all cases: affinity purification with mass spectrometry; tandem affinity purification from vegetative cells (Bdf1-TAP, Bdf2-TAP, Swr1-TAP), calmodulin eluates, nanoLC-MS/MS, iBAQ; Bdf2 also found with Bdf1-TAP in the yaf9Δ strain
Swr1-TAP (S. cerevisiae) = Swr1-TAP (S. cerevisiae) (UniProt Q05471)
Bdf1-TAP (S. cerevisiae) = target: T1, Bdf1-TAP (S. cerevisiae)
Bdf2-TAP (S. cerevisiae) = target: T2, Bdf2-TAP (S. cerevisiae)

| Binder | binding (Swr1-TAP (S. cerevisiae)) | binding (Bdf1-TAP (S. cerevisiae)) | binding (Bdf2-TAP (S. cerevisiae)) |
| --- | --- | --- | --- |
| Bdf2 (untagged) (protein, UniProt Q07442 1-638) MSRTNMDTRHAHSALLAAPQSATANSRSSNSSSESSSNKNNINVGVGDDSGNVSAVSIDDGPHFRDIFHYGHEENYKLASSGITNLNSSSHAHQTLSPISISNASTPESFPEHPLGLERETEPALEAEMEAEELPPHQSKYLLSSIKATKRLKDARPFLKPVDPIALNIPHYFNYVQTPMDLSLIETKLQGNVYHSVEQVTSDFKTMVDNCLNFNGPESSISSMAKRIQKYFEKKLSAMPPRVLPASALKKTSRNRKKNEDMDSPLVIRRSVSTTNDNIGESGNREGVSGGRPKRTIHPPKSKDLFDIYENSKPKSKTLQKKFRTCLKILKVLMSKKNSDINFPFLQPVDPIALNLPNYFDVVKNPMDLGTISNNLMNWKYKTIDQFVDDLNLVFYNCFQFNPEGNEVHSMGKKLKELFNFHWLENQDILNEIETDSDLEEDNYSSSYSSDDEYDDEDINENDITNPAIQYLEQKLKKMEVELQQLKRQELSKLSKERKRKHLGKTLLRRKAMKHSVDDLKKSITDKINELSDLEMNGMIRIIKNSLPADEILTSNEDEIEIDLDILDEATIARIYERYFEKKNNNNSKRKLSGNYSTAPTNKKKKTLKFLEKDEIINNNNYSDSEEDSSDSSDSDSD | no binding | binds | – |
| Bdf1 (wild-type, untagged) (protein, UniProt P35817 1-686) MTDITPVQNDVDVNGNNVNDDVSSNLKRPIDQGDPSNGLAEEENPANNQLHLKKARLDGDALTSSPAGLAENGIEGATLAANGENGYNATGSGAEDEQQGLKKEEGGQGTKQEDLDENSKQELPMEVPKEPAPAPPPEPDMNNLPQNPIPKHQQKHALLAIKAVKRLKDARPFLQPVDPVKLDIPFYFNYIKRPMDLSTIERKLNVGAYEVPEQITEDFNLMVNNSIKFNGPNAGISQMARNIQASFEKHMLNMPAKDAPPVIAKGRRSSAQEDAPIVIRRAQTHNGRPKRTIHPPKSKDIYPYESKKPKSKRLQQAMKFCQSVLKELMAKKHASYNYPFLEPVDPVSMNLPTYFDYVKEPMDLGTIAKKLNDWQYQTMEDFERDVRLVFKNCYTFNPDGTIVNMMGHRLEEVFNSKWADRPNLDDYDSDEDSRTQGDYDDYESEYSESDIDETIITNPAIQYLEEQLARMKVELQQLKKQELEKIRKERRLARGSKKRGKRSKGRSGSKNASSKGRRDKKNKLKTVVTYDMKRIITERINDLPTSKLERAIDIIKKSMPNISEDDEVELDLDTLDNHTILTLYNTFFRQYESSSGASNGLDGTSGVTRDASSLSPTSAGSRKRRSKALSQEEQSRQIEKIKNKLAILDSASPLSQNGSPGQIQSAAHNGFSSSSDDDVSSESEEE | – | – | binds |

No constants are given. Whether binding was seen depends on the method and setting. Binding seen in cells or lysates may run through a third protein. A yes stands for co-enrichment or nearness to the bait. Other partners may have been found. For part of these data: No binding means not detected with the bait. Where a sequence is shown, tags or fusion partners need not be part of it.
